These are yes or no findings as the source states them, for the method shown.
Target: GST alone
Test: GST pull-down, 35S-labelled in-vitro-translated VG5Q

B1: human VG5Q protein (protein)
chain: MASEAPSPPRSPPPPTSPEPELAQLRRKVEKLERELRSCKRQVREIEKLLHHTERLYQNAESNNQELRTQVEELSKILQRGRNEDNKKSDVEVQTENHAPWSISDYFYQTYYNDVSLPNKVTELSDQQDQAIETSILNSKDHLQVENDAYPGTDRTENVKYRQVDHFASNSQEPASALATEDTSLEGSSLAESLRAAAEAAVSQTGFSYDENTGLYFDHSTGFYYDSENQLYYDPSTGIYYYCDVESGRYQFHSRVDLQPYPTSSTKQSKDKKLKKKRKDPDSSATNEEKDLNSEDQKAFSVEHTSCNEEENFANMKKKAKIGIHHKNSPPKVTVPTSGNTIESPLHENISNSTSFKDEKIMETDSEPEEGEITDSQTEDSYDEAITSEGNVTAEDSEDEDEDKIWPPCIRVIVIRSPVLQIGSLFIITAVNPATIGREKDMEHTLRIPEVGVSKFHAEIYFDHDLQSYVLVDQGSQNGTIVNGKQILQPKTKCDPYVLEHGDEVKIGETVLSFHIHPGSDTCDGCEPGQVRAHLRLDKKDESFVGPTLSKEEKELERRKELKKIRVKYGLQNTEYEDEKTLKNPKYKDRAGKRREQVGSEGTFQRDDAPASVHSEITDSNKGRKMLEKMGWKKGEGLGKDGGGMKTPIQLQLRRTHAGLGTGKPSSFEDVHLLQNKNKKNWDKARERFTENFPETKPQKDDPGTMPWVKGTLE
modifications: 35S label in the GST pull-down (in-vitro-translated)
  binding: no binding

— patent publication US20080199473A1 (CLEVELAND CLINIC FOUNDATION, published 2008)
